No constants are given. Whether binding was seen depends on the method and setting. In cells and extracts the contact can be indirect. Some binding calls cover weakened binding; strength is not graded here. Where a sequence is shown, tags or fusion partners need not be part of it.
Tests used:
Experiment in all cases: pull-down; COS7 cells cotransfected with pEF-BOS-GST and pCAGGS-Myc plasmids, untreated or treated with calyculin A (50 nM, 12 min) with or without Y-27632 (20 uM); lysate (150 mM NaCl, 20 mM Tris-HCl pH 7.5, 1% NP-40) on glutathione-Sepharose 4B beads, 1 h, 4 °C; immunoblot
[1] = biological target: GST-PSD-93-PDZ3-SH3-T585D/T612D (mouse) (UniProt Q91XM9)
[2] = biological target: GST-PSD-93-PDZ3-SH3-T585A/T612A (mouse) (UniProt Q91XM9)
[3] = biological target: GST-PSD-93-PDZ3-SH3 (WT) (mouse) (UniProt Q91XM9)

Measured: binding

B1: Myc-SynGAP1 (protein, UniProt F6SEU4 1-1340)
chain: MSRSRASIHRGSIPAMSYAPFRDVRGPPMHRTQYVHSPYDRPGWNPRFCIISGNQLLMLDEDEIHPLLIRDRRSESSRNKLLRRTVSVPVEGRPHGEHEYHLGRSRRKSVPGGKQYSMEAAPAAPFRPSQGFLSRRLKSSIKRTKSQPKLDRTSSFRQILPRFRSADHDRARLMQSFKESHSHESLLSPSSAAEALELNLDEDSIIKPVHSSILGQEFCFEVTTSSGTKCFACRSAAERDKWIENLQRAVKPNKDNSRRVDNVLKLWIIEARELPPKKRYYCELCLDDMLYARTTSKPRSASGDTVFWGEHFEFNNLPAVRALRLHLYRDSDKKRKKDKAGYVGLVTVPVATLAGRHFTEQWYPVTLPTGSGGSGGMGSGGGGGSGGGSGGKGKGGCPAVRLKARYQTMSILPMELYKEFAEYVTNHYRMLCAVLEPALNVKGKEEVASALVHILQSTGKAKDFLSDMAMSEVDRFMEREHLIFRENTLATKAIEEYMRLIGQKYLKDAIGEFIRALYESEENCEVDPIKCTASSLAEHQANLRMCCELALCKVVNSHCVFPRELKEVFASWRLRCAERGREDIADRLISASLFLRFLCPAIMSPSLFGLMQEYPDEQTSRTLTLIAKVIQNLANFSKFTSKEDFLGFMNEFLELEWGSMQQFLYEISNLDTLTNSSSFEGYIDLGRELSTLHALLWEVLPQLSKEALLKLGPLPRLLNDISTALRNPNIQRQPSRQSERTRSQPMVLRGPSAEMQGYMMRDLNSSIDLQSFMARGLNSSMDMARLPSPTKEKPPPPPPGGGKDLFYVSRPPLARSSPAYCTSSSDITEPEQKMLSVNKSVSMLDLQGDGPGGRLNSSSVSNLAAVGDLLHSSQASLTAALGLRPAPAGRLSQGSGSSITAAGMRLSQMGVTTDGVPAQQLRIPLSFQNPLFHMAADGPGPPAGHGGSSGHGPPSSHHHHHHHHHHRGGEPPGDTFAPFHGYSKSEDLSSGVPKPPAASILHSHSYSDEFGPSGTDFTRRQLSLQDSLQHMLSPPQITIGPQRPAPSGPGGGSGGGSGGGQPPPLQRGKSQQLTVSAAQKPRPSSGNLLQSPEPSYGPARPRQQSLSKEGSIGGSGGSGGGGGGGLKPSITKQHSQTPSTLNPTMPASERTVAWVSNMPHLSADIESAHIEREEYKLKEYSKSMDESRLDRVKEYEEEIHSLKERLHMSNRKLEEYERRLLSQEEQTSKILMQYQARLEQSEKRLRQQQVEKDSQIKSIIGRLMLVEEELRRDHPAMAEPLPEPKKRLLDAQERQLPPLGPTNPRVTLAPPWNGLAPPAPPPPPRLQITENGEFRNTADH
binds: all assays above
